# Experimental data: the supplement of paper PMC7877785
# ± gives the uncertainty stated by the source. The uncertainty is large for many entries.
# Experiment: self-splicing fitness, log relative to wild type (ln ratio); higher = more splicing; Tetrahymena group I intron in knt gene, E. coli kanamycin selection, DiMSum; sequences stand for … in CUCUCU…GGAGGGAAAAGUUAUCAGGCAUGCACCUGGUAGCUAGUCUUUAAACCAAUAGAUUGCAUCGGUUUAAAAGGCAAGACCGUCAAAUUGCGGGAAAGGGGUCAACAGCCGUUCAGUACCAAGUCUCAGGGGAAACUUUGAGAUGGCCUUGCAAAGGGUAUGGUAAUAAGCUGACGGACAUGGUCCUAACCACGCAGCCAAGUCCUAAGUCAACAGAUCUUCUGUUGAUAUGGAUGCAGUUCACAGACUAAAUGUCGGUCGGGGAAGAUGUAUUCUUCUCAUAAGAUAUAGUCGGACCUCUCCUUAAUGGGAGCUAGCGGAUGAAGUGAUGCAACACUGGAGCCGCUGGGAACUAAUUUGUAUGCGAAAGUAUAUUGAUUAGUUUUGGAGUACUCGUGGUCG
# How it was run: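 Pooled colonies went to amplicon sequencing on an Illumina HiSeq 2500 after six replicate transformations. The plates were LB agar with 100 μg/mL carbenicillin, 50 μM IPTG and 0.2% rhamnose, with or without 25 μg/mL kanamycin, incubated overnight at 37°C or 30°C. The E. coli BL21(DE3) library had all eight P1ex-region intron nucleotides randomised, the intron placed in the knt kanamycin-resistance gene on pET-22b(+). DiMSum fitness is the error-weighted combination of replicate fold changes, kanamycin against none, normalised to wild type.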
Sequence,self-splicing fitness (ln) (30 °C),self-splicing fitness (ln) (37 °C)
CCUGAGCAAUAUUACGCGUG,-3.05 ± 0.19,-2.82 ± 0.22
CGUGAGCAAUAUUACGCGAA,-2.35 ± 0.14,-3.33 ± 0.29
AAAGAGCAAUAUUACGGGGU,-2.63 ± 0.21,-2.18 ± 0.24
ACAGAGCAAUAUUACGUCCC,-3.12 ± 1.1,–
CUAGAGCAAUAUUACGAUAA,-2.85 ± 0.21,-1.3 ± 0.23
UAGUAGCAAUAUUACGUAGG,–,-2.14 ± 0.77
CGAGAGCAAUAUUACGUAAC,-1.32 ± 0.54,–
GUUGAGCAAUAUUACGCGGC,-1.27 ± 0.65,-1.33 ± 0.67
UAUCAGCAAUAUUACGCGAU,-4.16 ± 0.51,–
UCAGAGCAAUAUUACGACCC,-1.21 ± 0.59,–
AGUUAGCAAUAUUACGCUUA,-1.3 ± 0.15,-0.343 ± 0.16
UAUUAGCAAUAUUACGUCAC,-1.98 ± 0.53,-1.59 ± 0.81
CGGUAGCAAUAUUACGCCGC,–,-1.02 ± 0.66
CCGAAGCAAUAUUACGGAGC,-1.9 ± 0.33,-2.74 ± 0.44
CGUAAGCAAUAUUACGAAAC,–,0.038 ± 0.59
CCGGAGCAAUAUUACGAUGC,–,-3.64 ± 1
UGACAGCAAUAUUACGCCGC,–,-2.73 ± 0.61
CCAUAGCAAUAUUACGGACC,-3.43 ± 1,-1.72 ± 0.59
AUUUAGCAAUAUUACGCCCC,–,-0.0681 ± 0.9
CCCGAGCAAUAUUACGCUUG,-3.03 ± 0.77,–
CCACAGCAAUAUUACGUGUG,-3.61 ± 0.095,-2.36 ± 0.092
GCAGAGCAAUAUUACGAGUC,-2.97 ± 0.25,-2.39 ± 0.32
GGGGAGCAAUAUUACGCGGC,–,-1.24 ± 0.49

Sequence,self-splicing fitness (ln) (30 °C),self-splicing fitness (ln) (37 °C)
UUACAGCAAUAUUACGCCAU,-2.91 ± 0.25,-2.48 ± 0.27
GUGGAGCAAUAUUACGGACA,–,-1.58 ± 0.58
AAGGAGCAAUAUUACGUGCU,-3.7 ± 0.53,–
CCAUAGCAAUAUUACGUGUG,-2.23 ± 0.09,-1.07 ± 0.08
UUCGAGCAAUAUUACGUGCU,–,-3.76 ± 0.51
GCCAAGCAAUAUUACGCGGU,-3.73 ± 0.2,-3.25 ± 0.27
AGUGAGCAAUAUUACGAGAA,–,0.161 ± 0.71
GCGUAGCAAUAUUACGGAAC,-1.45 ± 0.71,-0.432 ± 0.77
AAUGAGCAAUAUUACGGCCA,-2.42 ± 0.53,–
CCUUAGCAAUAUUACGGUGU,-3.82 ± 0.24,-2.81 ± 0.23
GAGCAGCAAUAUUACGAAGG,-4.63 ± 0.72,–
UCAGAGCAAUAUUACGUACA,-4.71 ± 1,-1.61 ± 0.6
GUGGAGCAAUAUUACGCGCC,-3.31 ± 0.6,-2.36 ± 0.62
GGAUAGCAAUAUUACGCAUU,-3.51 ± 0.32,-1.65 ± 0.22
UAUGAGCAAUAUUACGUCUC,–,-3.77 ± 1
CGUCAGCAAUAUUACGCCUU,-4.75 ± 0.59,–
UAGGAGCAAUAUUACGACCU,-0.167 ± 1.2,-1.36 ± 0.84
GCAUAGCAAUAUUACGGCAC,-1.15 ± 0.14,-0.425 ± 0.15
CGGUAGCAAUAUUACGAGUC,–,-4.77 ± 0.74
UGGGAGCAAUAUUACGUUAA,–,-2.07 ± 0.67
AGAGAGCAAUAUUACGGCAC,-4.19 ± 0.59,–
CGGGAGCAAUAUUACGGCCA,0.987 ± 0.73,-1.33 ± 0.64

# Individual results from the entries so far.
# Entry of AAGGAGCAAUAUUACGUGCU under self-splicing fitness (ln) (30 °C): -3.7 ± 0.53
# Entry of GAGCAGCAAUAUUACGAAGG under self-splicing fitness (ln) (30 °C): -4.63 ± 0.72
